Results taken from patent publication US20250283871A1, “COMPOSITIONS AND METHODS FOR MODULATING THE INTERACTION BETWEEN SS18-SSX FUSION ONCOPROTEIN AND NUCLEOSOMES” (Dana-Farber Cancer Institute, Inc., priority 2020, published 2025).

B1: CECR2 (protein, UniProt Q9BXF3 1-1484, looked up)
Chromatin remodeling …: MCPEEGGAAGLGELRSWWEVPAIAHFCSLFRTAFRLPDFEIEELEAALHRDDVEFISDLIACLLQGCYQRRDITPQTFHSYLEDIINYRWELEEGKPNPLREASFQDLPLRTRVEILHRLCDYRLDADDVFDLLKGLDADSLRVEPLGEDNSGALYWYFYGTRMYKEDPVQGKSNGELSLSRESEGQKNVSSIPGKTGKRRGRPPKRKKLQEEILLSEKQEENSLASEPQTRHGSQGPGQGTWWLLCQTEEEWRQVTESFRERTSLRERQLYKLLSEDFLPEICNMIAQKGKRPQRTKAELHPRWMSDHLSIKPVKQEETPVLTRIEKQKRKEEEEERQILLAVQKKEQEQMLKEERKRELEEKVKAVEGMCSVRVVWRGACLSTSRPVDRAKRRKLREERAWLLAQGKELPPELSHLDPNSPMREEKKTKDLFELDDDFTAMYKVLDVVKAHKDSWPFLEPVDESYAPNYYQIIKAPMDISSMEKKLNGGLYCTKEEFVNDMKTMFRNCRKYNGESSEYTKMSDNLERCFHRAMMKHFPGEDGDTDEEFWIREDEKREKRRSRAGRSGGSHVWTRSRDPEGSSRKQQPMENGGKSLPPTRRAPSSGDDQSSSSTQPPREVGTSNGRGFSHPLHCGGTPSQAPFLNQMRPAVPGTFGPLRGSDPATLYGSSGVPEPHPGEPVQQRQPFTMQPPVGINSLRGPRLGTPEEKQMCGGLTHLSNMGPHPGSLQLGQISGPSQDGSMYAPAQFQPGFIPPRHGGAPARPPDFPESSEIPPSHMYRSYKYLNRVHSAVWNGNHGATNQGPLGPDEKPHLGPGPSHQPRTLGHVMDSRVMRPPVPPNQWTEQSGFLPHGVPSSGYMRPPCKSAGHRLQPPPVPAPSSLFGAPAQALRGVQGGDSMMDSPEMIAMQQLSSRVCPPGVPYHPHQPAHPRLPGPFPQVAHPMSVTVSAPKPALGNPGRAPENSEAQEPENDQAEPLPGLEEKPPGVGTSEGVYLTQLPHPTPPLQTDCTRQSSPQERETVGPELKSSSSESADNCKAMKGKNPWPSDSSYPGPAAQGCVRDLSTVADRGALSENGVIGEASPCGSEGKGLGSSGSEKLLCPRGRTLQETMPCTGQNAATPPSTDPGLTGGTVSQFPPLYMPGLEYPNSAAHYHISPGLQGVGPVMGGKSPASHPQHFPPRGFQSNHPHSGGFPRYRPPQGMRYSYHPPPQPSYHHYQRTPYYACPQSFSDWQRPLHPQGSPSGPPASQPPPPRSLFSDKNAMASLQGCETLNAALTSPTRMDAVAAKVPNDGQNPGPEEEKLDESMERPESPKEFLDLDNHNAATKRQSSLSASEYLYGTPPPLSSGMGFGSSAFPPHSVMLQTGPPYTPQRPASHFQPRAYSSPVAALPPHHPGATQPNGLSQEGPIYRCQEEGLGHFQAVMMEQIGTRSGIRGPFQEMYRPSGMQMHPVQSQASFPKTPTAATSQEEVPPHKPPTLPLDQS
B2: IGHA1 (protein, UniProt P01876 1-398, looked up)
Immunoglobulin heavy constant …: ASPTSPKVFPLSLCSTQPDGNVVIACLVQGFFPQEPLSVTWSESGQGVTARNFPPSQDASGDLYTTSSQLTLPATQCLAGKSVTCHVKHYTNPSQDVTVPCPVPSTPPTPSPSTPPTPSPSCCHPRLSLHRPALEDLLLGSEANLTCTLTGLRDASGVTFTWTPSSGKSAVQGPPERDLCGCYSVSSVLPGCAEPWNHGKTFTCTAAYPESKTPLTATLSKSGNTFRPEVHLLPPPSEELALNELVTLTCLARGFSPKDVLVRWLQGSQELPREKYLTWASRQEPSQGTTTFAVTSILRVAAEDWKKGDTFSCMVGHEALPLAFTQKTIDRLADWQMPPPYVVLDLPQETLEEETPGANLWPTTITFLTLFLLSLFYSTALTVTSVRGPSGNREGPQY
B3: SSR3 (protein, UniProt Q9UNL2 1-185, looked up)
Translocon-associated protein …: MAPKGSSKQQSEEDLLLQDFSRNLSAKSSALFFGNAFIVSAIPIWLYWRIWHMDLIQSAVLYSVMTLVSTYLVAFAYKNVKFVLKHKVAQKREDAVSKEVTRKLSEADNRKMSRKEKDERILWKKNEVADYEATTFSIFYNNTLFLVVVIVASFFILKNFNPTVNYILSISASSGLIALLSTGSK

System: BAF complex subunits and histone proteins
Assay: Mass spectrometry proteomics of purified HA-SS18 WT and HA-SS18-SSX1 complexes (Tables 5A-5E)
Design: species or system human
Settings: HEK-293T; for Total (total peptides) / Unique (unique peptides): HA-SS18WT_CHR_peptides: protein identified in HA-SS18 WT BAF complex purification from nuclease-treated solubilized chromatin (CHR)
[1] = HA-SS18WT_NE_peptides: proteins co-purified with HA-SS18 WT from nuclear extract (NE)

| Molecule | Total (total peptides) | Unique (unique peptides) | Total (peptides) [1] | Unique (peptides) [1] |
| --- | --- | --- | --- | --- |
| B1 | 1 | 1 |  |  |
| B2 | 1 | 1 |  |  |
| B3 | 1 | 1 | 1 | 1 |
